Results deposited as PubChem BioAssay AID1259405 (NCATS, 2018).
Shown is one part, drawn at random, of about 50,000 reagents. About 4,000 of them (8%) were called active. 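Mouse siRNA library applied to hamster cells; one well for each siRNA.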 Reagents against one gene are numbered here. No sequences are given here.

Assay: 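Silenced genes that increase secreted GFP made by CHO cells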 (primary screen)
Cells: Chinese hamster CHO-K1 ovary cells with stable secreted eGFP expression
Reagent: single siRNA against mouse genes, 0.8 pmol siRNA per well (2 µl of 400 nM stock)
Duration: 3 days
Detection: 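Per-well intracellular GFP measured by laser scanning cytometry, plus viability from ATP luminescence, each relative to plate median of non-targeting control wells, in %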
Scale: GFP, % of control: higher = more GFP per well, higher productivity; viability (ATP), % of control: higher = more viable cells (more ATP)
Hit rule: 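Called active when intracellular GFP, relative to negative control, is at or above 120%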

| target gene | reagent | GFP, % of control | viability (ATP), % of control | activity call |
| --- | --- | --- | --- | --- |
| Ybx1 (Y box protein 1) | 1 | 45.2 | 67.8 | inactive |
| Ybx1 (Y box protein 1) | 2 | 83.4 | 87 | inactive |
| Ybx1 (Y box protein 1) | 3 | 39.8 | 44.5 | inactive |
| Pcdha10 (protocadherin alpha 10) | 1 | 92.6 | 106 | inactive |
| Pcdha10 (protocadherin alpha 10) | 2 | 73 | 80.4 | inactive |
| Pcdha10 (protocadherin alpha 10) | 3 | 70.2 | 62.3 | inactive |
| Gabpa (GA repeat binding protein, alpha) | 1 | 99.6 | 80.3 | inactive |
| Gabpa (GA repeat binding protein, alpha) | 2 | 45.1 | 52.3 | inactive |
| Gk5 (glycerol kinase 5) | 1 | 101 | 79.1 | inactive |
| Gk5 (glycerol kinase 5) | 2 | 124 | 77.9 | active |
| Gk5 (glycerol kinase 5) | 3 | 88 | 74.9 | inactive |
| Nsmce3 (NSE3 homolog, SMC5-SMC6 complex component) | 1 | 58.2 | 60.2 | inactive |
| Nsmce3 (NSE3 homolog, SMC5-SMC6 complex component) | 2 | 78.7 | 84.7 | inactive |
| Nsmce3 (NSE3 homolog, SMC5-SMC6 complex component) | 3 | 83.9 | 67.5 | inactive |
| Col4a6 (collagen, type IV, alpha 6) | 1 | 128 | 95.9 | active |
| Col4a6 (collagen, type IV, alpha 6) | 2 | 86.9 | 80.3 | inactive |
| Sh3yl1 (Sh3 domain YSC-like 1) | 1 | 68 | 66.8 | inactive |
| Sh3yl1 (Sh3 domain YSC-like 1) | 2 | 54.4 | 63.6 | inactive |
| Sh3yl1 (Sh3 domain YSC-like 1) | 3 | 75.2 | 62.2 | inactive |
| Mrpl19 (mitochondrial ribosomal protein L19) | 1 | 54.5 | 51.9 | inactive |
| Mrpl19 (mitochondrial ribosomal protein L19) | 2 | 59.4 | 64.5 | inactive |
| Mrpl19 (mitochondrial ribosomal protein L19) | 3 | 120 | 74.5 | active |
| Errfi1 (ERBB receptor feedback inhibitor 1) | 1 | 126 | 90.1 | active |
| Errfi1 (ERBB receptor feedback inhibitor 1) | 2 | 138 | 94.3 | active |
| Errfi1 (ERBB receptor feedback inhibitor 1) | 3 | 80.7 | 72.7 | inactive |
| Cript (cysteine-rich PDZ-binding protein) | 1 | 80.3 | 91.2 | inactive |
| Cript (cysteine-rich PDZ-binding protein) | 2 | 54.5 | 74.6 | inactive |
| Cript (cysteine-rich PDZ-binding protein) | 3 | 70.7 | 70.7 | inactive |
| Nyap2 | 1 | 63.4 | 38.4 | inactive |
| Nyap2 | 2 | 51.3 | 74 | inactive |
| Nyap2 | 3 | 57.3 | 73.2 | inactive |
| Lrrc24 (leucine rich repeat containing 24) | 1 | 119 | 70.2 | inactive |
| Lrrc24 (leucine rich repeat containing 24) | 2 | 104 | 89.8 | inactive |
| Lrrc24 (leucine rich repeat containing 24) | 3 | 51.1 | 56.6 | inactive |
| Mgmt (O-6-methylguanine-DNA methyltransferase) | 1 | 83.6 | 78.1 | inactive |
| Mgmt (O-6-methylguanine-DNA methyltransferase) | 2 | 96.4 | 78.3 | inactive |
| Mgmt (O-6-methylguanine-DNA methyltransferase) | 3 | 31.7 | 32.2 | inactive |
| Stradb (STE20-related kinase adaptor beta) | 1 | 78.2 | 79.3 | inactive |
| Mtch1 | 1 | 107 | 91 | inactive |
| Mtch1 | 2 | 108 | 64.1 | inactive |
| Mtch1 | 3 | 40.9 | 43.8 | inactive |
| Ids (iduronate 2-sulfatase) | 1 | 130 | 88.4 | active |
| Ids (iduronate 2-sulfatase) | 2 | 117 | 113 | inactive |
| Ids (iduronate 2-sulfatase) | 3 | 58.5 | 69 | inactive |
| Or12j2 (olfactory receptor family 12 subfamily J member 2) | 1 | 58.1 | 44 | inactive |
| Or12j2 (olfactory receptor family 12 subfamily J member 2) | 2 | 81 | 121 | inactive |
| Or12j2 (olfactory receptor family 12 subfamily J member 2) | 3 | 99.6 | 81.3 | inactive |

Active calls, of those listed so far:
| target gene | reagent | GFP, % of control | viability (ATP), % of control | activity call |
| --- | --- | --- | --- | --- |
| Gk5 (glycerol kinase 5) | 2 | 124 | 77.9 | active |
| Col4a6 (collagen, type IV, alpha 6) | 1 | 128 | 95.9 | active |
| Mrpl19 (mitochondrial ribosomal protein L19) | 3 | 120 | 74.5 | active |
| Errfi1 (ERBB receptor feedback inhibitor 1) | 1 | 126 | 90.1 | active |
| Errfi1 (ERBB receptor feedback inhibitor 1) | 2 | 138 | 94.3 | active |
| Ids (iduronate 2-sulfatase) | 1 | 130 | 88.4 | active |

Further results follow:
| target gene | reagent | GFP, % of control | viability (ATP), % of control | activity call |
| --- | --- | --- | --- | --- |
| Aldh18a1 (aldehyde dehydrogenase 18 family, member A1) | 1 | 91.1 | 96.5 | inactive |
| Aldh18a1 (aldehyde dehydrogenase 18 family, member A1) | 2 | 94.1 | 94.8 | inactive |
| Aldh18a1 (aldehyde dehydrogenase 18 family, member A1) | 3 | 123 | 92.7 | active |
| Pip4p2 (phosphatidylinositol-4,5-bisphosphate 4-phosphatase 2) | 1 | 94.9 | 105 | inactive |
| Pip4p2 (phosphatidylinositol-4,5-bisphosphate 4-phosphatase 2) | 2 | 196 | 92.6 | active |
| Pip4p2 (phosphatidylinositol-4,5-bisphosphate 4-phosphatase 2) | 3 | 72.6 | 76.2 | inactive |
| Rpe (ribulose-5-phosphate-3-epimerase) | 1 | 102 | 96.5 | inactive |
| Rpe (ribulose-5-phosphate-3-epimerase) | 2 | 51.7 | 85.5 | inactive |
| Rpe (ribulose-5-phosphate-3-epimerase) | 3 | 64.3 | 59.4 | inactive |
| Rln3 (relaxin 3) | 1 | 67.5 | 81.5 | inactive |
| Rln3 (relaxin 3) | 2 | 53.4 | 70 | inactive |
| Rln3 (relaxin 3) | 3 | 68.3 | 78.9 | inactive |
| Pzp2 (PZP alpha-2-macroglobulin like 2) | 1 | 58.9 | 51.9 | inactive |
| Pzp2 (PZP alpha-2-macroglobulin like 2) | 2 | 75.9 | 61 | inactive |
| Pzp2 (PZP alpha-2-macroglobulin like 2) | 3 | 63.6 | 92.3 | inactive |
| Pkd2l1 (polycystic kidney disease 2-like 1) | 1 | 82.6 | 65.4 | inactive |
| Pkd2l1 (polycystic kidney disease 2-like 1) | 2 | 81.8 | 66.8 | inactive |
| Pkd2l1 (polycystic kidney disease 2-like 1) | 3 | 107 | 54 | inactive |
| Itfg1 (integrin alpha FG-GAP repeat containing 1) | 1 | 96.3 | 80.7 | inactive |
| Itfg1 (integrin alpha FG-GAP repeat containing 1) | 2 | 83.5 | 44 | inactive |
| Ctnnd2 (catenin delta 2) | 1 | 89.6 | 97 | inactive |
| Ctnnd2 (catenin delta 2) | 2 | 114 | 89.1 | inactive |
| Ctnnd2 (catenin delta 2) | 3 | 101 | 91.7 | inactive |
| Atp5mj (ATP synthase membrane subunit j) | 1 | 49 | 44.5 | inactive |
| Atp5mj (ATP synthase membrane subunit j) | 2 | 45.3 | 36.1 | inactive |
| Atp5mj (ATP synthase membrane subunit j) | 3 | 74.9 | 83.5 | inactive |
| Babam2 (BRISC and BRCA1 A complex member 2) | 1 | 125 | 97.2 | active |
| Babam2 (BRISC and BRCA1 A complex member 2) | 2 | 84.6 | 63.4 | inactive |
| Babam2 (BRISC and BRCA1 A complex member 2) | 3 | 105 | 127 | inactive |
| H2bc1 (H2B clustered histone 1) | 1 | 81.9 | 73.4 | inactive |
| H2bc1 (H2B clustered histone 1) | 2 | 74.3 | 87.8 | inactive |
| H2bc1 (H2B clustered histone 1) | 3 | 117 | 99.6 | inactive |
| Nomo1 (nodal modulator 1) | 1 | 78 | 92.6 | inactive |
| Nomo1 (nodal modulator 1) | 2 | 69.7 | 91.2 | inactive |
| Nomo1 (nodal modulator 1) | 3 | 144 | 39.4 | active |
| Fbxo42 (F-box protein 42) | 1 | 67.6 | 74.3 | inactive |
| Fbxo42 (F-box protein 42) | 2 | 66.5 | 66.4 | inactive |
| Fbxo42 (F-box protein 42) | 3 | 85.8 | 88.3 | inactive |
